Data from article PMC9825045.

Target: T1, PAQR4 (tagged, exogenous co-IP) (human) (UniProt Q8N4S7)
T1 sequence: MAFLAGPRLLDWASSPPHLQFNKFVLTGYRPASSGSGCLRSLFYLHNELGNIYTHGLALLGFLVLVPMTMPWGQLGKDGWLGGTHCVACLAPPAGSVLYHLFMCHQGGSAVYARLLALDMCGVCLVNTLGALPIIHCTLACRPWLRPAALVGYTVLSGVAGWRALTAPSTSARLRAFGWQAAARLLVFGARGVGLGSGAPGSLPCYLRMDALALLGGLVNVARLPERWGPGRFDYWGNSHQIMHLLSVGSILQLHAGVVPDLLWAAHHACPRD
Experiment: co-IP; exogenous co-IP in HEK293T cells; IP lysis buffer, antibody overnight at 4 °C, magnetic agarose beads, washes with 0.5 M NaCl, 20 mM Na2HPO4, pH 7.0; Western blot

binding: binds
Substance: AKT (exogenous co-IP)

Results are given in words; binding and its absence hold for the method and conditions named. Binding seen in cells or lysates may run through a third protein. Binding can be weak; no strength is given. Sequences can lack the tags named with a protein.
